PubChem BioAssay AID1259306 – Sanger Institute | 2017
Here is one part, drawn at random, of 794 deposited reagents. Over the whole deposit, 11 (1.4%) were called active. 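Calls reflect knock-down alone; synergy scores play no part, so knock-downs synergising with a drug can be called no change.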 No viability above 1 is reported: the scale is capped. No sequences are given here. The record does not give: the amount of reagent, the time to read-out.

- Purpose: 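Kinases needed for viability and knock-downs that synergise with BYL719, cetuximab or trametinib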 (primary screen)
- System: human SNU-C5 colorectal cancer cells
- Reagent: siRNA pool against human genes
- Treatment: DMSO vehicle alone, or one anchor drug: BYL719 at 1 µM, cetuximab at 5 µg/ml or trametinib at 10 nM, given 24 h into the assay
- Measured: 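Replicate-averaged viability against non-targeting pool control, given as fraction and robust z-score; separate synergy scores for BYL719, cetuximab and trametinib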
- Reading the numbers: robust z-score, knock-down alone and viability, knock-down alone: higher = more viable cells; synergy score with BYL719: higher = stronger synthetic lethality with BYL719; synergy score with cetuximab: higher = stronger synthetic lethality with cetuximab; synergy score with trametinib: higher = stronger synthetic lethality with trametinib
- Active means: 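Called essential when the robust z-score for knock-down alone is below -3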
- Calls: active = essential (knock-down alone); inactive = no change alone

gene symbol	robust z-score, knock-down alone	viability, knock-down alone	synergy score with BYL719	synergy score with cetuximab	synergy score with trametinib	Outcome
CDK10	-1.05	0.718	-0.148	-0.169	-0.11	inactive
PRKAG2	0.989	1	0.159	0	0.0633	inactive
BUB1B	-0.617	0.779	0.066	0.00886	-0.0224	inactive
ASPM	-0.0365	0.859	-0.141	-0.141	-0.0706	inactive
PKN2	-0.99	0.727	-0.108	-0.105	-0.0908	inactive
RIPK2	0.989	1	0.0285	0	0.081	inactive
TESK2	0.868	0.983	-0.0167	-0.0167	0.0949	inactive
GRK2	0.352	0.912	-0.0878	0.0203	-0.0399	inactive
PIM1	0.989	1	0.0341	0	0.0586	inactive
COMMD3	0.678	0.957	0.243	0.128	-0.0734	inactive
STK11	0.459	0.927	0.17	0.247	-0.0963	inactive
SOX9	-1.77	0.62	-0.0153	-0.0358	-0.165	inactive
DTYMK	0.989	1	0.242	0.0785	-0.0186	inactive
PXK	-0.713	0.765	0.0728	-0.0962	0.0108	inactive
TTK	-0.996	0.727	-0.053	-0.12	-0.0387	inactive
PIK3R1	0.34	0.911	-0.00587	-0.0894	-0.0828	inactive
NRAS	-0.389	0.81	-0.164	0.0322	-0.225	inactive
EIF2AK3	0.591	0.945	-0.0145	0.0427	0.00246	inactive
PDXK	0.561	0.941	-0.047	0.0737	-0.0339	inactive
PRKD3	-0.951	0.733	-0.106	0.09	-0.112	inactive
CDC7	0.989	1	0.0945	0.0461	-0.0665	inactive
MYLK4	-0.335	0.818	-0.182	0.039	-0.00106	inactive
DGKI	0.989	1	0	0.11	-0.137	inactive
GOLGA5	0.468	0.928	0.056	-0.0661	-0.22	inactive
WNK3	0.989	1	0.0903	0.0356	0.0883	inactive
CDK19	0.989	1	0.217	0.0638	-0.0449	inactive

Laid out differently: results already given
NRAS → robust z-score, knock-down alone: -0.389; viability, knock-down alone: 0.81; synergy score with BYL719: -0.164; synergy score with cetuximab: 0.0322; synergy score with trametinib: -0.225; Outcome: inactive
EIF2AK3 → robust z-score, knock-down alone: 0.591; viability, knock-down alone: 0.945; synergy score with BYL719: -0.0145; synergy score with cetuximab: 0.0427; synergy score with trametinib: 0.00246; Outcome: inactive
PDXK → robust z-score, knock-down alone: 0.561; viability, knock-down alone: 0.941; synergy score with BYL719: -0.047; synergy score with cetuximab: 0.0737; synergy score with trametinib: -0.0339; Outcome: inactive
PRKD3 → robust z-score, knock-down alone: -0.951; viability, knock-down alone: 0.733; synergy score with BYL719: -0.106; synergy score with cetuximab: 0.09; synergy score with trametinib: -0.112; Outcome: inactive
CDC7 → robust z-score, knock-down alone: 0.989; viability, knock-down alone: 1; synergy score with BYL719: 0.0945; synergy score with cetuximab: 0.0461; synergy score with trametinib: -0.0665; Outcome: inactive
MYLK4 → robust z-score, knock-down alone: -0.335; viability, knock-down alone: 0.818; synergy score with BYL719: -0.182; synergy score with cetuximab: 0.039; synergy score with trametinib: -0.00106; Outcome: inactive

Next records:
gene symbol	robust z-score, knock-down alone	viability, knock-down alone	synergy score with BYL719	synergy score with cetuximab	synergy score with trametinib	Outcome
WIPF1	-2.6	0.505	0.0508	0.0133	-0.159	inactive
TEX14	-0.56	0.787	0.125	0.0871	-0.153	inactive
PPP2R1A	0.989	1	0	0	-0.0135	inactive
CILK1	0.988	1	0.222	-0.000168	0.113	inactive
MAPKAPK5	0.989	1	0.166	0.324	-0.0876	inactive
HSPB8	0.507	0.934	0.0859	0.0672	0.0131	inactive
RBM10	-0.861	0.745	-0.065	0.19	-0.0617	inactive
POLR2B	-4.09	0.3	0.0551	-0.0596	-0.246	active
EPHA4	0.415	0.921	0.114	-0.0791	0.00968	inactive
PLK2	0.989	1	0	0	0.0366	inactive
CLK2	0.953	0.995	0.289	0.116	-0.151	inactive
PRKAA2	-1.64	0.638	-0.147	-0.34	-0.149	inactive
STK32B	0.989	1	0.136	0.0221	-0.0445	inactive
ABL1	0.989	1	0	0.119	-0.191	inactive
DGUOK	0.989	1	0.0224	0.16	-0.113	inactive
PIK3CD	0.989	1	0.197	0.152	0.0642	inactive
CDKN2D	-0.533	0.79	-0.154	0.0289	-0.111	inactive
MAST2	0.4	0.919	0.0254	0.129	-0.0987	inactive
STK24	-0.486	0.797	-0.203	0.051	-0.391	inactive
CDK12	0.491	0.931	0.0249	-0.0477	-0.0978	inactive
PIK3C2G	-0.719	0.765	-0.0321	-0.0642	-0.221	inactive
PANK3	0.824	0.977	-0.0228	0.16	-0.0253	inactive
CDK2	0.354	0.913	0.102	0.122	-0.0746	inactive
AKT2	0.585	0.944	0.139	-0.0557	0.134	inactive
